Measured values published in patent publication US20060134638, “Error reduction in automated gene synthesis” (Blue Heron Biotechnology, Inc., published 2006).

Biological target: T1, MutS (TaqMutS) (Thermus aquaticus) (UniProt Q56215)
T1 sequence (looked up, limits assumed): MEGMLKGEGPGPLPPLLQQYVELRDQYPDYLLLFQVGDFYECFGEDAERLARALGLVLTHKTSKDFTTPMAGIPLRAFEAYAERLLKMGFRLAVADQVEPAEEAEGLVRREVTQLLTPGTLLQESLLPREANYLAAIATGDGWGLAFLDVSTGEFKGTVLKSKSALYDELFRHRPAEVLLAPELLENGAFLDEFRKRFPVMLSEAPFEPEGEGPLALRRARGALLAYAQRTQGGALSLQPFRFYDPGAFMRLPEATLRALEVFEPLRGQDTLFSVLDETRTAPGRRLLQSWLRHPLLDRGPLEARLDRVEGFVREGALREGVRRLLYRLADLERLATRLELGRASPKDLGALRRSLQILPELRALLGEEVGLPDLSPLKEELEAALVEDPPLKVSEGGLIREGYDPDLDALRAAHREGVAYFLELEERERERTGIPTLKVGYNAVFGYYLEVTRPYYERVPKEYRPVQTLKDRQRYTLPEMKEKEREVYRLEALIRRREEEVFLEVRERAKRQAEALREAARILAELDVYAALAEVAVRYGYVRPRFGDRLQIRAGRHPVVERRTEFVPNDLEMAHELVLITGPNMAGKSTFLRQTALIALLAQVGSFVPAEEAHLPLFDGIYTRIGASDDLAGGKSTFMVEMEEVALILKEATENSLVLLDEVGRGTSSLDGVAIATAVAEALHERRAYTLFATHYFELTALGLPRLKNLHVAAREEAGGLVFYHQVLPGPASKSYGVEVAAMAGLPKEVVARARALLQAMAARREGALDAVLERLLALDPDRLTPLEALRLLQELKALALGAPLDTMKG
Assay: activity assay
Settings: 500 nM MutS, 40 nM DNA, 60 C, Micropure-EZ column retention; purified recombinant protein; protein details: Epicentre listed as commercial source; only the site is given

Work on GAAGGCGCCC / CTTCTCGCGGG yielded an activity on this sequence (% heteroduplex removed) greater than 98.

Construct, isoform or probe ends are uncertain for at least one entry. Tags and fusion partners may be left off the protein sequences shown.
